Data source: PubChem BioAssay AID1224826 (NIAID, 2016)

Assay: 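Regulators of Tlr4 signalling leading to Tnf-alpha expression in macrophages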 (primary screen)
Cell system: RAW264.7 G9 macrophages from mouse bearing reporters for p65 (GFP) and the Tnf promoter (mCherry)
Reagent: siRNA pool against mouse genes, 100 nM
Duration: 16 h of LPS stimulation, after 2 days of siRNA transfection
Conditions: bacterial lipopolysaccharide (Salmonella minnesota R595), 10 ng/ml
Read-out: 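Nuclear mCherry signal of the Tnf promoter reporter measured by imaging after background removal, scaled to each plate median and turned into robust z-scores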
Scale: Tnf reporter robust z-score: higher = stronger Tnf promoter reporter signal after LPS
Hit rule: 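a well counts as active at a score of -1.3 or below (Tlr4 knock-down control median) or above 3 (raised signal); controls and wells holding fewer than 50 cells are excluded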
Calls: active = Tnf reporter clearly lowered or raised; inactive = no clear change in Tnf reporter
In all, the deposit lists about 17,000 reagents; this is a random part of them. Over the whole deposit, about 1,110 (6.6%) were called active. 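Active means lowered or raised reporter signal; replicate intensities are raw and not normalised per plate.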 Not all columns of the deposit are shown. No sequences are given here.

The opening 2 entries, to show the layout:
A930018P22Rik
- Tnf reporter robust z-score: 1.33
- fewer than 50 cells in well: enough cells in well
- activity call: inactive

Hipk3
- Tnf reporter robust z-score: -0.11
- fewer than 50 cells in well: enough cells in well
- activity call: inactive

The listing, from the first entry:
A930018P22Rik
- Tnf reporter robust z-score: 1.33
- fewer than 50 cells in well: enough cells in well
- activity call: inactive

Hipk3
- Tnf reporter robust z-score: -0.11
- fewer than 50 cells in well: enough cells in well
- activity call: inactive

Gpc3
- Tnf reporter robust z-score: 0.57
- fewer than 50 cells in well: enough cells in well
- activity call: inactive

Ebf4
- Tnf reporter robust z-score: 0.35
- fewer than 50 cells in well: enough cells in well
- activity call: inactive

Adra1d
- Tnf reporter robust z-score: -0.85
- fewer than 50 cells in well: enough cells in well
- activity call: inactive

Spata32
- Tnf reporter robust z-score: 2.16
- fewer than 50 cells in well: enough cells in well
- activity call: inactive

Slc20a1
- Tnf reporter robust z-score: 1.16
- fewer than 50 cells in well: enough cells in well
- activity call: inactive

Hspa1a
- Tnf reporter robust z-score: -0.12
- fewer than 50 cells in well: enough cells in well
- activity call: inactive

Slc26a1
- Tnf reporter robust z-score: 0.34
- fewer than 50 cells in well: enough cells in well
- activity call: inactive

Pisd
- Tnf reporter robust z-score: -1.03
- fewer than 50 cells in well: enough cells in well
- activity call: inactive

Raly
- Tnf reporter robust z-score: 0.23
- fewer than 50 cells in well: enough cells in well
- activity call: inactive

Rpl4
- fewer than 50 cells in well: fewer than 50 cells per well; well left out of calls
- activity call: inactive

Piwil4
- Tnf reporter robust z-score: 0.82
- fewer than 50 cells in well: enough cells in well
- activity call: inactive

Cpap
- Tnf reporter robust z-score: 1.54
- fewer than 50 cells in well: enough cells in well
- activity call: inactive

Fhl1
- Tnf reporter robust z-score: 0.66
- fewer than 50 cells in well: enough cells in well
- activity call: inactive

Or2t1
- Tnf reporter robust z-score: -0.41
- fewer than 50 cells in well: enough cells in well
- activity call: inactive

Or4c107
- Tnf reporter robust z-score: -0.59
- fewer than 50 cells in well: enough cells in well
- activity call: inactive

Wdfy3
- Tnf reporter robust z-score: 1.56
- fewer than 50 cells in well: enough cells in well
- activity call: inactive

Tmem60
- Tnf reporter robust z-score: 1.44
- fewer than 50 cells in well: enough cells in well
- activity call: inactive

Otos
- Tnf reporter robust z-score: -0.56
- fewer than 50 cells in well: enough cells in well
- activity call: inactive

Nutm1
- Tnf reporter robust z-score: -1.49
- fewer than 50 cells in well: enough cells in well
- activity call: active
